This is an account of results in paper PMC12670160, “A drug-repurposing screen of FDA- and EMA-approved drugs identifies two NF-κB inhibitors active against eumycetoma” (Journal of Antimicrobial Chemotherapy, 2025).

Each structure is given as a SMILES string. Counter-ions that a name gives are not always drawn. Like-named read-outs stand apart in the source and are kept apart here. The whole screen tested about 5,300 compounds, of which about 130 (2.5%) showed an effect of 50% or more. The list shows a part of the results. Numbered stars: 1 amine (or outer) side, 2 acyl side, 3 side chain; on linkers, the order of the positions; unused ones are H or OH. Bridge positions count the residues as written; N and C are the ends. Square brackets hold non-standard residues; d marks the D form. Peptide text beside a SMILES is read from it. * marks the point of attachment. ξ: configuration not given here. pTerphenylCO(4''-OnC5H11) = CCCCCOc1ccc(-c2ccc(-c3ccc(C(=O)*)cc3)cc2)cc1; ξOrn(4,5-diOH) = O=C(C(CC(O)C(O)N[*:3])N[*:1])[*:2]; ξhTyr(βξ-OH,γξ-OH) = NC(C(=O)O)C(O)C(O)c1ccc(O)cc1; ξPro(3ξ-OH,4ξ-Me) = CC1CNC(C(=O)O)C1O; Hyp = O=C(O)[CH]1C[CH](O)CN1

This test relates to M. mycetomatis strain mm55. Conditions: primary screen, metabolic activity vs growth control, 96 h, 2 µM, inhibitor.

Regarding `COc1cc(/C=C(\C#N)C(N)=O)cc(CSc2nc3ccccc3s2)c1O` [ONC0002729, tyrphostinag825], the “% viability” value amounted to 75.66%.
The same measure, in the same setting: then `CC(C)c1nnc(-c2ccc(-c3ccccc3)nc2)n1-c1cccc2nonc12` [ONC0004268, asp2535], with 61.85%; and `O=C(O)c1ccc(CN2CCC(CN[C@@H]3C[C@H]3c3ccccc3)CC2)cc1` [ONC0001137, gsk2879552], with 48.21%.
The same measure, in the same setting: in the case of `CC(=O)Nc1ncc([N+](=O)[O-])s1` [ONC0004009, nithiamide] it was 74.22%; in that of `FC(F)(F)c1ccc(N2CCNCC2)nc1Cl` [ONC0001937, org12962], 70.23%.
Still for that read-out and setting: in the case of `COc1cc(C#N)ccc1S(=O)(=O)Nc1ccc2c(c1)cc(C)c(=O)n2C` [ONC0003652, ni57] it was 62.58%.
As for `Cc1cc(CC(=O)O)n(C)c1C(=O)c1ccc(Cl)cc1` [ONC0003404, zomepirac sodium], the “% viability” value worked out at 97.2%.
For `O=C(O)C1=CCCNC1` [ONC0003071, guvacine], the “% viability” value was determined as 130.1%.
Same read-out and setting: then `CC(=O)Nc1cccc(Nc2ncnc(N3CCC(OCc4ccc(OC(F)(F)F)cc4)CC3)n2)c1C` [ONC0004487, tcn1752], with 159.7%; and `CCC1(c2ccc(N)cc2)CCC(=O)NC1=O` (centres unmarked) [ONC0003189, aminoglutethimide], with 107.9%; and `C[C@H](CCC(=O)O)[C@H]1CC[C@H]2[C@@H]3CC[C@@H]4C[C@H](O)CC[C@]4(C)[C@H]3C[C@H](O)[C@]12C` [ONC0001972, deoxycholic acid], with 111.6%.
Consider `Nc1nccc2c1ncn2[C@@H]1O[C@H](CO)C(O)C1O` (some centres unmarked) [ONC0001988, 3deazaadenosine], for which the “% viability” value stood at 139.4%.
Still for that read-out and setting: then `Nc1ccc2cc3ccc(N)cc3nc2c1` [ONC0004263, proflavine hemisulfate], with 83.54%; and `O=C(NN1C(=O)[C@@H]2[C@@H]3C=C[C@@H]([C@H]4C[C@@H]34)[C@@H]2C1=O)c1ccc(C(F)(F)F)cc1` [ONC0001041, tecovirimat], with 87.54%.
The same measure, in the same setting: in the case of `C[C@H](Cc1ccc2c(c1)OC(C(=O)O)(C(=O)O)O2)NC[C@H](O)c1cccc(Cl)c1` [ONC0001625, cl316243] it was 75.29%.
Regarding `CC(C)c1nc(N(C)S(C)(=O)=O)nc(-c2ccc(F)cc2)c1/C=C/[C@@H](O)C[C@@H](O)CC(=O)O` [ONC0004242, rosuvastatin calcium], the “% viability” value is listed as 62.66%.
The same measure, in the same setting: then `CCCCCOc1ccc(-c2ccc(-c3ccc(C(=O)N[C@H]4C[C@@H](O)[C@@H](O)NC(=O)[C@@H]5[C@@H](O)[C@@H](C)CN5C(=O)[C@H]([C@@H](C)O)NC(=O)[C@H]([C@H](O)[C@@H](O)c5ccc(O)cc5)NC(=O)[C@@H]5C[C@@H](O)CN5C(=O)[C@H]([C@@H](C)O)NC4=O)cc3)cc2)cc1` [ONC0002234, anidulafungin] ({pTerphenylCO(4''-OnC5H11)}-[ξOrn(4,5-diOH)]T[Hyp][ξhTyr(βξ-OH,γξ-OH)]T[ξPro(3ξ-OH,4ξ-Me)]; lactam 1-C; configuration not given here), with 182.3%.
Same read-out and setting: then `C=C(CC)C(=O)c1ccc(OCC(=O)O)c(Cl)c1Cl` [ONC0000717, ethacrynic acid], with 74.67%; and `CC1(C)N=C(N)N=C(N)N1OCCCOc1cc(Cl)c(Cl)cc1Cl` [ONC0002794, wr99210], with 76.68%.
The same measure, in the same setting: in the case of `Nc1ccc(S(=O)(=O)NC(=O)c2ccccc2)cc1` [ONC0000484, sulfabenzamide] it was 67.23%.
Turning to `CCOc1ccc(NC(=S)N2CCC(C(O)(c3ccccc3)c3ccccc3)CC2)cc1` [ONC0001806, sf11], the “% viability” value is listed as 103.2%.
On the same count and under the same terms, then `C[C@]12C=CC(=O)C=C1CCC1C2[C@@H](O)C[C@@]2(C)C1CC[C@]2(O)C(=O)COP(=O)(O)O` (some centres unmarked) [ONC0004116, prednisolone sodium phosphate], with 116.3%; and `CCCOC(C(=O)OC1CCN(C)CC1)(c1ccccc1)c1ccccc1` [ONC0000299, propiverine hydrochloride], with 62.95%.
Still for that read-out and setting: in the case of `CCOCCn1c(C2CCN(CCc3ccc(C(C)(C)C(=O)O)cc3)CC2)nc2ccccc21` [ONC0001779, bilastine] it was 116.8%.
Consider `CC(CN(C)C)CN1c2ccccc2Sc2ccccc21` (centres unmarked) [ONC0003228, trimeprazine tartrate], for which, where the note is “Madurella mycetomatis metabolic activity at 2µM (%)”, the “% viability” value came to 94.09%.
`CCOC(=O)COc1ccc2c(c1)C[C@@H](NC[C@H](O)c1cccc(Cl)c1)CC2` [ONC0005593, amibegron]: the “% viability” value was determined as 93.46%.
On the same count and under the same terms, then `C[C@@H](O)[C@H]1C(=O)N2C(C(=O)O)=C(S[C@@H]3CN[C@H](C(=O)Nc4cccc(C(=O)O)c4)C3)[C@H](C)[C@H]12` [ONC0003353, ertapenem sodium], with 77.23%.
On the same count and under the same terms, in the case of `CCN(CC)CCCC(C)Nc1ccnc2cc(Cl)ccc12` (centres unmarked) [ONC0000750, chloroquine diphosphate] it was 85.47%; in that of `CS(=O)(=O)c1ccc([C@@H](O)[C@@H](CF)NC(=O)C(Cl)Cl)cc1` [ONC0004043, florfenicol], 70.41%; in that of `Cc1nc(Cn2cnc3c2c(=O)n(C)c(=O)n3C)no1` [ONC0005579, ch170], 82.49%.
The same measure, in the same setting: then `CN1C(C(=O)Nc2ccccn2)C(=O)c2sccc2S1(=O)=O` (centres unmarked) [ONC0002886, tenoxicam], with 126.3%.
Consider `C[C@](N)(Cc1ccc(O)cc1)C(=O)O` [ONC0003723, metirosine], for which the “% viability” value worked out at 99.2%.
`[N-]=[N+]=N[C@]1(CO)O[C@@H](n2ccc(N)nc2=O)[C@H](O)[C@@H]1O` [ONC0001768, r1479]: the “% viability” value came out at 81.29%.
As to `CNC(=O)c1c(-c2ccc(F)cc2)oc2cc(N(CCO)S(C)(=O)=O)c(C3CC3)cc12` [ONC0002076, nesbuvir], the “% viability” value was 52.04%.
Still for that read-out and setting: then `CC(C)=CCC[C@](C)(O)[C@H]1CC[C@]2(C)[C@@H]1[C@H](O)C[C@@H]1[C@@]3(C)CC[C@H](O[C@@H]4O[C@H](CO)[C@@H](O)[C@H](O)[C@H]4O[C@@H]4O[C@H](CO)[C@@H](O)[C@H](O)[C@H]4O)C(C)(C)[C@@H]3CC[C@]12C` [ONC0002001, ginsenoside rg3], with 88.93%.
